Measured values reported in the supplement of paper PMC10735217.
Counter-ions that a name gives are not always drawn. This is one part of the list. Single values are uncertain here, since repeats match poorly.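 Human kidney-derived cells stably carry a construct in which eight TEAD-binding elements drive luciferase, measured by luminescence in a drug-repurposing library screen. A hit is any compound whose signal exceeds the plate mean by more than five robust Z scores.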

Test system: HEK293A TEAD-LUC reporter
Assay: TEAD-luciferase reporter activity (YAP activation), robust Z score vs plate; higher = stronger YAP/TEAD activation
Details: 24 h

Compound | TEAD-luciferase reporter activity (compound concentration: 200 nM) | TEAD-luciferase reporter activity (compound concentration: 2 uM) | TEAD-luciferase reporter activity (compound concentration: 10 uM)
O=C(Cc1ccc(-c2ccc(OCCN3CCOCC3)cc2)cn1)NCc1ccccc1 | inactive: 1.32 | inactive: 1.98 | active: 5.42
CCOC(=O)N1c2ccc(C(F)(F)F)cc2[C@@H](N(Cc2cc(C(F)(F)F)cc(C(F)(F)F)c2)C(=O)OC)C[C@H]1CC | inactive: -0.68 |  | inactive: -1.02
CCOC(=O)N1c2ccc(C(F)(F)F)cc2[C@@H](N(Cc2cc(C(F)(F)F)cc(C(F)(F)F)c2)C(=O)OC)C[C@H]1CC [Torcetrapib] |  | inactive: 0.364 | 
COc1cc(CCc2ccc(C3=Cc4ccccc4C4=NCCN34)cc2)cc(OC)c1OC | inactive: -1.01 | inactive: -1.09 | active: 5.92
COc1ccc(OC2CN(CCC(C)C)C2)cc1 | inactive: -1.44 |  | inactive: 0.0219
CCN(CC)CCNC(=O)c1ccc(NS(C)(=O)=O)cc1 [Sematilide hydrochloride] |  | inactive: -0.649 | 
CCN(CC)CCNC(=O)c1ccc(NS(C)(=O)=O)cc1 [Sematilide monohydrochloride monohydrate] | inactive: -2.37 |  | inactive: 4.91
CCOc1ccc(-n2c([C@@H](C)N(Cc3cccnc3)C(=O)Cc3ccc(OC(F)(F)F)cc3)nc3ncccc3c2=O)cc1 | inactive: -1.55 | inactive: 0.703 | inactive: 1.44
COc1cc(N)c(Cl)cc1C(=O)NC1C[C@H]2CCC[C@@H](C1)N2Cc1ccc(F)cc1 (some centres undefined) | inactive: -1.18 | inactive: -0.0438 | inactive: -0.275
CCO[C@@H](Cc1ccc(OCCn2c(C)ccc2-c2ccc(SC)cc2)cc1)C(=O)O |  | inactive: 0.173 | 
CCO[C@@H](Cc1ccc(OCCn2c(C)ccc2-c2ccc(SC)cc2)cc1)C(=O)O [Saroglitazar] | inactive: -0.21 | inactive: 2.62 | inactive: 4
c1ccc(C23OCC(Cn4c2nc2ccccc24)O3)cc1 (centres undefined) [oxapadol] | inactive: 0.078 | inactive: -0.478 | inactive: 0.123
CC1(c2ccccc2)Cc2cc(OCC(=O)O)c(Cl)c(Cl)c2C1=O (centres undefined) | inactive: -1.4 | inactive: -1.24 | inactive: -0.375
CCc1occc(=O)c1[O][V](=[O])[O]c1c(CC)occc1=O | inactive: -0.632 | inactive: -0.289 | inactive: 3.97
CSCC(CC(=O)c1ccc(C)cc1)C(=O)O (centres undefined) [S-Methyl-KE-298] | inactive: -1.72 | inactive: -0.782 | inactive: -1.23
Cn1c(-c2ccccn2)c(C2CCCC2)c2ccc(C(=O)NC3(C(=O)Nc4ccc(/C=C/C(=O)O)cc4)CCC3)cc21 | inactive: -0.304 | inactive: -0.681 | inactive: 0.982
CCOc1nc(N)nc2c1ncn2[C@@H]1O[C@@H]2COP(=O)(OC(C)C)O[C@H]2[C@@]1(C)F (some centres undefined) | inactive: -1.95 | inactive: -0.81 | inactive: -0.956
Cc1cc(/C=C/c2cccs2)cc(C)c1OC(=O)CCC(=O)O | inactive: 0.821 | inactive: -1.07 | inactive: 1.92
S=c1[nH]cnc2nc[nH]c12 [Mercaptopurine] | inactive: -1.32 | inactive: 2.37 | inactive: -1.58
S=c1[nH]cnc2nc[nH]c12 |  | inactive: 0.339 | 
O=C(c1ccc(-c2ccc(Nc3nc4ccc(F)cc4s3)c(F)c2)cc1)[C@H]1CCC[C@H]1C(=O)O | inactive: -0.611 | inactive: 0.0846 | inactive: 1.65
O=C1CCC(C(=O)O)N1 (centres undefined) [Pyroglutamic acid] | inactive: -1.82 | inactive: -1.35 | inactive: -0.68
CCC(C)(C)C(=O)C(=O)N1CCCCC1C(=O)OC(CCc1ccc(OC)c(OC)c1)c1cccc(OCC(=O)Nc2c(/N=N/c3ccc(-c4ccc(/N=N/c5cc(S(=O)(=O)O)c6ccccc6c5N)cc4)cc3)cc(S(=O)(=O)O)c3ccccc23)c1 (centres undefined) | inactive: 1.25 | inactive: -1.37 | inactive: -1.6
C=C[C@@H]1C[C@]1(NC(=O)[C@@H]1C[C@@H](OC(=O)N2Cc3cccc(F)c3C2)CN1C(=O)[C@@H](NC(=O)OC(C)(C)C)C(C)(C)C)C(=O)NS(=O)(=O)C1CC1 | inactive: -2.75 | inactive: -0.143 | inactive: 0.341
Cc1cc(NC2CCCCC2)nc(-n2nc(C)cc2C)n1 | inactive: -0.375 | inactive: -1.75 | inactive: 1.65
N#Cc1cc2nc(O)c(O)nc2cc1[N+](=O)[O-] | inactive: -0.0223 | inactive: 4.05 | inactive: -0.0522
CNc1cccc(NC(=O)C(=O)O)c1C#N | inactive: 0.424 | inactive: 1.36 | inactive: -0.221
O=C1NCc2ccccc2CC12CCCCN2Cc1ccc(O)cc1 (centres undefined) | inactive: 0.363 |  | inactive: 0.253
COc1cc2nc3c(nc2cc1C(=O)[O-])c(C(=O)NCCN(C)C)c(O)c1ccccc13 | inactive: 2.16 |  | inactive: -1.22

As a short view, some entries already given:
Compound | TEAD-luciferase reporter activity (compound concentration: 200 nM) | TEAD-luciferase reporter activity (compound concentration: 2 uM) | TEAD-luciferase reporter activity (compound concentration: 10 uM)
O=C(Cc1ccc(-c2ccc(OCCN3CCOCC3)cc2)cn1)NCc1ccccc1 | inactive: 1.32 | inactive: 1.98 | active: 5.42
CCOC(=O)N1c2ccc(C(F)(F)F)cc2[C@@H](N(Cc2cc(C(F)(F)F)cc(C(F)(F)F)c2)C(=O)OC)C[C@H]1CC | inactive: -0.68 |  | inactive: -1.02
CCOC(=O)N1c2ccc(C(F)(F)F)cc2[C@@H](N(Cc2cc(C(F)(F)F)cc(C(F)(F)F)c2)C(=O)OC)C[C@H]1CC [Torcetrapib] |  | inactive: 0.364 | 
COc1cc(CCc2ccc(C3=Cc4ccccc4C4=NCCN34)cc2)cc(OC)c1OC | inactive: -1.01 | inactive: -1.09 | active: 5.92
COc1ccc(OC2CN(CCC(C)C)C2)cc1 | inactive: -1.44 |  | inactive: 0.0219
CCN(CC)CCNC(=O)c1ccc(NS(C)(=O)=O)cc1 [Sematilide hydrochloride] |  | inactive: -0.649 | 
